{"source": "PubChem BioAssay AID445", "about": "(National Center for Advancing Translational Sciences (NCATS), 2006)", "assay": "IkB Signaling", "settings": "ABC-DLBCL IkBa-CBG/CBR dual luciferase ratio (green luciferase fused to IkBa over red control in OCI-Ly3 lymphoma cells), 4 h", "in_short": "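Luminescence ratio of IκBα-fused green versus native red beetle luciferase in OCI-Ly3 cells, 4 h post-doxycycline with compound; red signal alone, scaled from basal (0%) to zero light (-100%), flagged nonspecific or cytotoxic effects.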", "key": {"[1]": {"settings": "measured here: control luc red channel unless noted"}}, "note": "This is one part of the list. The main result of the screen is listed elsewhere. These columns were measured beside it and carry no call. The list favours compounds with an active or inconclusive main result. Potencies come from curve fits of mixed quality, noted in brackets."}
{"smiles": "CC(=O)c1cccc(NC(=O)Cn2nc(C)n3cccc3c2=O)c1", "values": [{"measurement": "AC50", "setting": "[1]", "value": "10 µM [falling, partial curve]"}]}
{"smiles": "CC(=O)N1CCCc2cc(S(=O)(=O)N3CCC(C(=O)Nc4cccc(Cl)c4C)CC3)ccc21", "values": [{"measurement": "AC50", "setting": "[1]", "value": "0.2 µM [falling, full curve, poor fit]"}]}
{"smiles": "Cc1cc2ccccc2n1-c1ccc(C(=O)N2CCC(C(=O)NCc3ccc(Cl)cc3)CC2)s1", "values": [{"measurement": "AC50", "setting": "[1]", "value": "3.98 µM [falling, full curve]"}]}
{"smiles": "O=C(CSc1nnc(-c2cccs2)o1)Oc1ccccc1", "values": [{"measurement": "AC50", "setting": "[1]", "value": "25.1 µM [falling, single point]"}]}
{"smiles": "CC(=O)c1sc(NC(=O)C2(F)C(F)(F)C(F)(F)C(F)(F)C(F)(F)C2(F)F)nc1C", "values": [{"measurement": "AC50", "setting": "[1]", "value": "1 µM [falling, full curve, poor fit]"}]}
{"smiles": "O=C(c1cccnc1)N1CCN(S(=O)(=O)c2ccc(S(=O)(=O)N3CCCC3)cc2)CC1", "values": [{"measurement": "AC50", "setting": "[1]", "value": "10 nM [rising, full curve, poor fit] [measured here: IkB-luc green channel]"}]}
{"smiles": "COc1ccc2oc(=O)c(C(=O)NCCc3c(C)[nH]c4c(C)cccc34)cc2c1", "values": [{"measurement": "AC50", "setting": "[1]", "value": "15.8 µM [falling, single point]"}]}
{"smiles": "COC(=O)c1cc(NC(=O)CCS(=O)(=O)c2cc(Br)cc3c2N(C(=O)C2CC2)CC3)cc(C(=O)OC)c1", "values": [{"measurement": "AC50", "setting": "[1]", "value": "39.8 µM [falling, single point]"}]}
{"smiles": "CCOc1cc2[nH]c(=O)n(CCC(=O)N3CCN(c4cccc(Cl)c4)CC3)c(=O)c2cc1OCC", "values": [{"measurement": "AC50", "setting": "[1]", "value": "5.01 µM [rising, partial curve]"}]}
{"smiles": "CCOc1ccc(-c2csc3ncnc(Nc4cccc(O)c4)c23)cc1", "values": [{"measurement": "AC50", "setting": "[1]", "value": "6.31 µM [falling, full curve]"}]}
{"smiles": "Cc1ccccc1C(=O)Nc1ccc(NC(=O)c2cccs2)cc1", "values": [{"measurement": "AC50", "setting": "[1]", "value": "15.8 µM [falling, partial curve]"}]}
{"smiles": "CC(=O)N1CCCc2cc(S(=O)(=O)N3CCC(C(=O)NCc4ccc(F)cc4)CC3)ccc21", "values": [{"measurement": "AC50", "setting": "[1]", "value": "0.2 µM [falling, partial curve, poor fit]"}]}
{"smiles": "CCN1c2ccccc2NC2N=C(OC)C(c3ccccc3)C21", "note": "(centres undefined)", "values": [{"measurement": "AC50", "setting": "[1]", "value": "7.94 µM [falling, partial curve]"}]}
{"smiles": "COc1ccccc1N1CCN(C(=O)C2CCN(S(=O)(=O)c3cccc4nonc34)CC2)CC1", "values": [{"measurement": "AC50", "setting": "[1]", "value": "15.8 µM [falling, single point]"}]}
{"smiles": "CCOC(=O)c1c(C)n(-c2ccccc2)c2ccc(OC(=O)c3ccccc3Cl)cc12", "values": [{"measurement": "AC50", "setting": "[1]", "value": "0.794 µM [rising, full curve]"}]}
{"smiles": "COc1ccc(CC(=O)Nc2cccc(-c3nnc(-c4ccc(C)cc4)o3)c2)cc1OC", "values": [{"measurement": "AC50", "setting": "[1]", "value": "1 µM [falling, full curve]"}]}
{"smiles": "CC(C)COc1ccc(C(=O)NCC2OCCc3ccccc32)cc1", "note": "(centres undefined)", "values": [{"measurement": "AC50", "setting": "[1]", "value": "20 µM [falling, single point]"}]}
{"smiles": "CCOc1ccc(CCNC(=O)C2CCCN(c3nnc(C)c4c(C)n(-c5ccccc5)nc34)C2)cc1", "note": "(centres undefined)", "values": [{"measurement": "AC50", "setting": "[1]", "value": "12.6 µM [falling, partial curve]"}]}
{"smiles": "NC(=O)c1c(NC(=O)c2noc3c2CCCC3)sc2c1CCCC2", "values": [{"measurement": "AC50", "setting": "measured here: IkB-luc green channel", "value": "31.6 µM [rising, partial curve]"}, {"measurement": "AC50", "setting": "measured here: control luc red channel", "value": "0.631 µM [rising, partial curve]"}]}
{"smiles": "CC(=O)N1c2c(cc(Br)cc2S(=O)(=O)N2CCN(c3ccccn3)CC2)CC1C", "note": "(centres undefined)", "values": [{"measurement": "AC50", "setting": "[1]", "value": "20 µM [falling, partial curve]"}]}
{"smiles": "CCc1ccccc1Nc1nn2c(=O)c3ccc(C(=O)NCCc4ccccc4)cc3nc2s1", "values": [{"measurement": "AC50", "setting": "[1]", "value": "2.51 µM [falling, full curve, poor fit]"}]}
{"smiles": "Cc1cccc(C(=O)NC2(C(F)(F)F)N=C(c3ccccc3)N(Cc3ccccc3)C2=O)c1", "note": "(centres undefined)", "values": [{"measurement": "AC50", "setting": "[1]", "value": "10 µM [falling, partial curve]"}]}
{"smiles": "O=C(CSc1nc2ccccc2n1CC(=O)Nc1ccc(F)cc1F)Nc1ccc(F)cc1", "values": [{"measurement": "AC50", "setting": "[1]", "value": "2.51 µM [falling, full curve]"}]}
{"smiles": "COc1ccc(-n2c(SCc3nc(-c4ccc(C)cc4)no3)nnc2-c2ccncc2)cc1", "values": [{"measurement": "AC50", "setting": "[1]", "value": "31.6 µM [falling, single point]"}]}
{"smiles": "CCOc1ccc2c(c1)c(=O)c(S(=O)(=O)c1ccc(C)cc1)cn2CC(=O)Nc1ccc(C)cc1", "values": [{"measurement": "AC50", "setting": "[1]", "value": "15.8 µM [falling, single point]"}]}
{"smiles": "CCn1c(=O)c2cc(C(=O)NCCc3cccc(C)c3)sc2c2ccccc21", "values": [{"measurement": "AC50", "setting": "[1]", "value": "0.794 µM [falling, full curve, poor fit]"}]}
{"smiles": "O=C(Nc1ccccc1)c1ccc2nc(-c3ccco3)c(-c3ccco3)nc2c1", "values": [{"measurement": "AC50", "setting": "[1]", "value": "15.8 µM [falling, partial curve]"}]}
{"smiles": "CC(=O)c1ccc(NC(=O)c2cccc(NC(=O)N3CCSc4ncccc43)c2)cc1", "values": [{"measurement": "AC50", "setting": "[1]", "value": "1 µM [falling, full curve]"}]}
{"smiles": "CCOC(=O)c1cnc(-n2nc(C)cc2C)nc1NCc1ccccc1", "values": [{"measurement": "AC50", "setting": "[1]", "value": "25.1 µM [falling, partial curve]"}]}
{"smiles": "CCOCCCNC(=O)c1c(NC(=O)Cc2coc3c(C)c(C)ccc23)sc2c1CCC2", "values": [{"measurement": "AC50", "setting": "[1]", "value": "0.501 µM [falling, full curve]"}]}
{"smiles": "Cc1onc(-c2ccccc2Cl)c1C(=O)N1CCc2ccccc21", "values": [{"measurement": "AC50", "setting": "[1]", "value": "15.8 µM [falling, partial curve]"}]}
{"smiles": "COC(=O)c1cc(C)nc2c1c(=O)nc(SCc1cc(C)ccc1C)n2C1CC1", "values": [{"measurement": "AC50", "setting": "[1]", "value": "39.8 µM [falling, single point]"}]}
{"smiles": "CCCN(Cc1cc2cc(C)ccc2[nH]c1=O)C(=O)c1cccc(Cl)c1", "values": [{"measurement": "AC50", "setting": "[1]", "value": "25.1 µM [falling, single point]"}]}
{"smiles": "COc1ccccc1Nc1nnc(SCC(=O)N2CCCC2=O)s1", "values": [{"measurement": "AC50", "setting": "[1]", "value": "5.01 µM [falling, partial curve]"}]}
{"smiles": "Cc1ccc(-c2nnn(CC(=O)N(Cc3ccco3)C(C(=O)NC(C)(C)C)c3cccs3)n2)o1", "note": "(centres undefined)", "values": [{"measurement": "AC50", "setting": "[1]", "value": "12.6 µM [falling, partial curve]"}]}
{"smiles": "Cc1c(Cl)cccc1NC(=O)N1CCN(Cc2cc(=O)n3nc(-c4ccccc4F)sc3n2)CC1", "values": [{"measurement": "AC50", "setting": "[1]", "value": "20 µM [falling, single point]"}]}
{"smiles": "O=C(Nc1ccc2ccccc2c1)N1CCN(c2ncccc2C(F)(F)F)CC1", "values": [{"measurement": "AC50", "setting": "[1]", "value": "39.8 µM [falling, single point]"}]}
{"smiles": "COc1ccc(NS(=O)(=O)c2ccc3c(c2)CCN3C(=O)C2CC2)cc1OC", "values": [{"measurement": "AC50", "setting": "[1]", "value": "3.98 µM [rising, partial curve]"}]}
